3 sequences from paper PMC4741959 can be followed below.

The chains behind the UniProt entries cited, without tags or fusion partners. Where a name states a change or a piece, a line headed by the entry shows the natural chain unless it says otherwise.
UniProt P31153: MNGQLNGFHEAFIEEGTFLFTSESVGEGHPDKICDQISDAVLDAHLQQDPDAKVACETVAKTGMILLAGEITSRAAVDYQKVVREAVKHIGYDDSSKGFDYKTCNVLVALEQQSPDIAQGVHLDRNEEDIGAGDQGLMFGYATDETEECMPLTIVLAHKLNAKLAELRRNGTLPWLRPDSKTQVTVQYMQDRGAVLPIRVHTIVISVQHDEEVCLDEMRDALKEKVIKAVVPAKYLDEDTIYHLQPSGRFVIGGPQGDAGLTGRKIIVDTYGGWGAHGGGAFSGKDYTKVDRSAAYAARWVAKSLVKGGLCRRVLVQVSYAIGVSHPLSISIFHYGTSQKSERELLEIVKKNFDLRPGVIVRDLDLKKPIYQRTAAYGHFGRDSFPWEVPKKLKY

Series [1] has as its target MATα2 (RKO nuclear extract, supershift) (human) (UniProt P31153). Kind of series: EMSA supershift. The settings on record: anti-MATα2 antibody (3 μg); LightShift Chemiluminescent EMSA Kit protocol (Thermo); pH and binding temperature not stated; protein in an extract.
For series [2], the target named is MATα2 (HepG2 nuclear extract, supershift) (human) (UniProt P31153). Kind of series: EMSA supershift. The settings on record: anti-MATα2 antibody (3 μg); LightShift Chemiluminescent EMSA Kit protocol (Thermo); pH and binding temperature not stated; protein in an extract.

Construct, isoform or probe ends are uncertain for at least one entry. At least one result comes from cells or an extract, where the contact may be indirect. For part of these data: At least one verdict was read from the data and is not stated in words by the source.

As to “GGTTTAATGTAACTTTCAATGG (double strand) [Bcl-2 P2 promoter probe 2 (site 2)]”, the binding result in series [1] and in series [2] was “binds” each time.

“GGCAGCTTAATACATTCTTTTTAGCCG (double strand) [Bcl-2 P2 promoter probe 3 (site 3)]”: the binding result in series [1] and in series [2] was “binds” in each case.

Turning to “TGCGGATTGACATTTCTGTGAA (double strand) [Bcl-2 P2 promoter probe 1 (site 1)]”, the binding result in series [1] and in series [2] was “binds” in each case.
